Source: article PMC12529098
No constants are given. Whether binding was seen depends on the method and setting. In cells and extracts the contact can be indirect. Some results given as binding are weak or reduced against the parent protein; the word gives no strength.

By UniProt entry, the sequences of proteins in these tests, tags left out.
UniProt Q62296: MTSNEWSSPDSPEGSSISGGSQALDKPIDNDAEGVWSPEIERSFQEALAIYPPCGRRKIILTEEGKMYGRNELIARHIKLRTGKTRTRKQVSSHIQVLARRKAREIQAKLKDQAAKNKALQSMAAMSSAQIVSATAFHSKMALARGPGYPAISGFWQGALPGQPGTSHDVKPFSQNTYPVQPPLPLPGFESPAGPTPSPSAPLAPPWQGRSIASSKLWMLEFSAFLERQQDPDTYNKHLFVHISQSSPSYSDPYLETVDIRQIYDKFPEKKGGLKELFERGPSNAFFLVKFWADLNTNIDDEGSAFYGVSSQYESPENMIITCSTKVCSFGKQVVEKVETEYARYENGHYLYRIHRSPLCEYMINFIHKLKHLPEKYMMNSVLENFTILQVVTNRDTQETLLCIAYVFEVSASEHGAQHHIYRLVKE
UniProt Q8BQQ1: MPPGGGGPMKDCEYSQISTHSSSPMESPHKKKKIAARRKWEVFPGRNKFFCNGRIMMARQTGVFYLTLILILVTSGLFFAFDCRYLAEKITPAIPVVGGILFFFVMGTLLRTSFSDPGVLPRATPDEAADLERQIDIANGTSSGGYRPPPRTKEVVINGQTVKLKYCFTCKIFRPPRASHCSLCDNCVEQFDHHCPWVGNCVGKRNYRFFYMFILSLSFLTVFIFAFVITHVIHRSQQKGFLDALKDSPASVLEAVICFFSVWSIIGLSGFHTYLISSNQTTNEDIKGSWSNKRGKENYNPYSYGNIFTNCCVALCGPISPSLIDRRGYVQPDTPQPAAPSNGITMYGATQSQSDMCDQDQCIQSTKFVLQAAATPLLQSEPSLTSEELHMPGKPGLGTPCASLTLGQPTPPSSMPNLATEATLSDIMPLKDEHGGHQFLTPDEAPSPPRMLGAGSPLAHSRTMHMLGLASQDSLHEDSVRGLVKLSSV

Molecular target: TEAD4 (mouse (endogenous in pmTECs)) (UniProt Q62296)
Test: co-IP; renal TECs following inflammatory injury; cells lysed in NP-40 buffer; eluted proteins (100 ug per sample) analysed by Western blot; which protein was precipitated is not given

**Q.** With “ZDHHC14 (from UniProt Q8BQQ1 1-489) (enzyme)” as the substance, how does the binding read?
**A.** Its binding is “binds”.
